Data as given in PubChem BioAssay AID1053208 (Peter MacCallum Cancer Centre, 2014)
In all, the deposit lists about 17,000 reagents; shown is a random part of them. Over the whole deposit, 788 (4.7%) were called active. 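Calls rest on z-score classes alone; an extra cut-off of viability at most 70% of control was not applied to them.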 Entries without a mark were called inactive. Not all columns of the deposit are shown. Reagent sequences are not shown.

- Test: 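Synthetic lethal interactions between gene loss and doxorubicin in osteosarcoma cells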 (primary screen)
- Cell system: mouse osteosarcoma cells, early-passage culture from an engineered mouse model of fibroblastic bone tumour
- Reagents: siRNA pool against mouse genes, 40 nM
- Timing: about 120 h (48 h before drug, then 72 h with drug)
- Conditions: doxorubicin 100 nM for 72 h, roughly 30-40% inhibitory dose
- Measured: 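Luminescent ATP signal taken as viability with or without 100 nM doxorubicin for 72 h; mean of two wells set against non-targeting siRNA and turned into robust z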
- Scale: viability z-score with doxorubicin: higher = more viable cells under doxorubicin; viability z-score without drug: higher = more viable cells with knock-down alone
- Call rule: 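Called active if knock-down leaves viability unchanged without drug (z within -2 to 2) but lowers it with doxorubicin (z at or under -2)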

Btk (Bruton agammaglobulinemia tyrosine kinase): combined z-score class = no change with or without drug; viability z-score with doxorubicin = 0.11; viability z-score without drug = 1.18
Cyp2c40 (cytochrome P450, family 2, subfamily c, polypeptide 40): combined z-score class = no change with or without drug; viability z-score with doxorubicin = 0; viability z-score without drug = 0.51
Or2m12 (olfactory receptor family 2 subfamily M member 12): combined z-score class = no change with or without drug; viability z-score with doxorubicin = -0.45; viability z-score without drug = -1.18
Pals1 (protein associated with LIN7 1, MAGUK family member): combined z-score class = low cell count with doxorubicin only (active); viability z-score with doxorubicin = -2.02; viability z-score without drug = -1.85
Grwd1 (glutamate-rich WD repeat containing 1): combined z-score class = no change with or without drug; viability z-score with doxorubicin = 0; viability z-score without drug = 0.51
Itgb3bp (integrin beta 3 binding protein (beta3-endonexin)): combined z-score class = no change with or without drug; viability z-score with doxorubicin = 1.57; viability z-score without drug = 0.84
Ubox5 (U box domain containing 5): combined z-score class = no change with or without drug; viability z-score with doxorubicin = -0.67; viability z-score without drug = 1.52
Haglr (Hoxd antisense growth associated long non-coding RNA): combined z-score class = no change with or without drug; viability z-score with doxorubicin = -0.67; viability z-score without drug = -0.34
Copz1 (coatomer protein complex, subunit zeta 1): combined z-score class = no change with or without drug; viability z-score with doxorubicin = -1.57; viability z-score without drug = -1.01
Gdpd1 (glycerophosphodiester phosphodiesterase domain containing 1): combined z-score class = no change with or without drug; viability z-score with doxorubicin = 1.12; viability z-score without drug = 0.51
Itpkb (inositol 1,4,5-trisphosphate 3-kinase B): combined z-score class = no change with or without drug; viability z-score with doxorubicin = -1.01; viability z-score without drug = -1.01
Chordc1 (cysteine and histidine rich domain containing 1): combined z-score class = no change with or without drug; viability z-score with doxorubicin = -0.67; viability z-score without drug = 1.52
Plekho1 (pleckstrin homology domain containing O1): combined z-score class = no change with or without drug; viability z-score with doxorubicin = 0.11; viability z-score without drug = 1.18
Rgs9bp (regulator of G-protein signalling 9 binding protein): combined z-score class = no change with or without drug; viability z-score with doxorubicin = 1.69; viability z-score without drug = 0.67
Tmod4 (tropomodulin 4): combined z-score class = no change with or without drug; viability z-score with doxorubicin = -0.67; viability z-score without drug = 0.17
Zfyve1 (zinc finger, FYVE domain containing 1): combined z-score class = no change with or without drug; viability z-score with doxorubicin = -0.67; viability z-score without drug = -0.51
Dok2 (docking protein 2): combined z-score class = no change with or without drug; viability z-score with doxorubicin = -0.67; viability z-score without drug = -0.84
Pml (promyelocytic leukemia): combined z-score class = no change with or without drug; viability z-score with doxorubicin = -0.9; viability z-score without drug = 0.17
Nfx1 (nuclear transcription factor, X-box binding 1): combined z-score class = no change with or without drug; viability z-score with doxorubicin = 1.57; viability z-score without drug = -0.51
Paral1 (PPARG activating RBM14 associated lncRNA 1): combined z-score class = no change with or without drug; viability z-score with doxorubicin = -0.34; viability z-score without drug = 0.17
Gm5108 (predicted gene 5108): combined z-score class = no change with or without drug; viability z-score with doxorubicin = -0.67; viability z-score without drug = -1.52
Skic2 (SKI2 subunit of superkiller complex): combined z-score class = no change with or without drug; viability z-score with doxorubicin = 0.22; viability z-score without drug = 0.34
Ube2e3 (ubiquitin-conjugating enzyme E2E 3): combined z-score class = no change with or without drug; viability z-score with doxorubicin = -0.45; viability z-score without drug = 0.17
Gm5084 (predicted gene 5084): combined z-score class = no change with or without drug; viability z-score with doxorubicin = 1.46; viability z-score without drug = 0.84
Akap1 (A kinase anchor protein 1): combined z-score class = no change with or without drug; viability z-score with doxorubicin = -0.9; viability z-score without drug = -1.85
Coa8 (cytochrome c oxidase assembly factor 8): combined z-score class = no change with or without drug; viability z-score with doxorubicin = 1.35; viability z-score without drug = 1.35
Tmco4 (transmembrane and coiled-coil domains 4): combined z-score class = no change with or without drug; viability z-score with doxorubicin = 0.9; viability z-score without drug = 0.34
Banp (BTG3 associated nuclear protein): combined z-score class = no change with or without drug; viability z-score with doxorubicin = 1.24; viability z-score without drug = 0.34
Ssr4 (signal sequence receptor, delta): combined z-score class = no change with or without drug; viability z-score with doxorubicin = -1.01; viability z-score without drug = -1.01
Usp21 (ubiquitin specific peptidase 21): combined z-score class = no change with or without drug; viability z-score with doxorubicin = 0.11; viability z-score without drug = 0.51
Zbtb5 (zinc finger and BTB domain containing 5): combined z-score class = no change with or without drug; viability z-score with doxorubicin = -0.9; viability z-score without drug = 1.52
Galnt3 (polypeptide N-acetylgalactosaminyltransferase 3): combined z-score class = no change with or without drug; viability z-score with doxorubicin = -0.9; viability z-score without drug = -0.51
Dixdc1 (DIX domain containing 1): combined z-score class = no change with or without drug; viability z-score with doxorubicin = 1.35; viability z-score without drug = 0.17
Exosc6 (exosome component 6): combined z-score class = no change with or without drug; viability z-score with doxorubicin = 0.22; viability z-score without drug = 0.17
Abhd18 (abhydrolase domain containing 18): combined z-score class = no change with or without drug; viability z-score with doxorubicin = 1.01; viability z-score without drug = 0.51
Adcy2 (adenylate cyclase 2): combined z-score class = low cell count without drug only; viability z-score with doxorubicin = 1.57; viability z-score without drug = -6.74
